Data taken from PMC9833660.
No constants are given. Whether binding was seen depends on the method and setting. Some binding calls cover weakened binding; strength is not graded here.

Chains of the proteins cited; added tags and fusions are not shown.
UniProt Q9SUM3: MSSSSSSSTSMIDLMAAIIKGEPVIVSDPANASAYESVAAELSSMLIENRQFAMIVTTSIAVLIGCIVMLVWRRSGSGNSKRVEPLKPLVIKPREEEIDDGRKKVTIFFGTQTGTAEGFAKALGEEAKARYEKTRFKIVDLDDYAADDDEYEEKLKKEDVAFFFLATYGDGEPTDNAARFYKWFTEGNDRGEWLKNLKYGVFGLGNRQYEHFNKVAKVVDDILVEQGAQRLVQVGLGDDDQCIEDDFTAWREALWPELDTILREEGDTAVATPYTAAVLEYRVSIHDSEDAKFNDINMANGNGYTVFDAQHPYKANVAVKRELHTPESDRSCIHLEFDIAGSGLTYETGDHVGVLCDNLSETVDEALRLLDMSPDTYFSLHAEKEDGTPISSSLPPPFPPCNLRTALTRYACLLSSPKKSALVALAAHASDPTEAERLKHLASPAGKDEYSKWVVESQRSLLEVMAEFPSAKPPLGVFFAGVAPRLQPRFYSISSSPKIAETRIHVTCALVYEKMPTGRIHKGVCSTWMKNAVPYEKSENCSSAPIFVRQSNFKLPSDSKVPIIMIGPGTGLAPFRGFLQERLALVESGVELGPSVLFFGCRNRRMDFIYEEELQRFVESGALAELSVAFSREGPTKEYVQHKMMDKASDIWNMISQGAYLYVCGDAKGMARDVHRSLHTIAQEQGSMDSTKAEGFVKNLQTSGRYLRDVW

Experiments:
[1] = molecular target: T1, Arabidopsis thaliana NADH-cytochrome b5 reductase 1 (CBR1) (Arabidopsis thaliana) (UniProt Q9ZNT1); assay: two-hybrid; mating-based split-ubiquitin membrane yeast two-hybrid; CBR1, ATR1 and ATR2 as baits (pMetYC, Cub), CB5D as prey (pNX32, NubG); diploid cells diluted 10^-1 to 10^-3 on selective SD/-Trp, -Leu, -Ade, -His, -Ura, -Met medium, 28°C, 3 days
T1 sequence: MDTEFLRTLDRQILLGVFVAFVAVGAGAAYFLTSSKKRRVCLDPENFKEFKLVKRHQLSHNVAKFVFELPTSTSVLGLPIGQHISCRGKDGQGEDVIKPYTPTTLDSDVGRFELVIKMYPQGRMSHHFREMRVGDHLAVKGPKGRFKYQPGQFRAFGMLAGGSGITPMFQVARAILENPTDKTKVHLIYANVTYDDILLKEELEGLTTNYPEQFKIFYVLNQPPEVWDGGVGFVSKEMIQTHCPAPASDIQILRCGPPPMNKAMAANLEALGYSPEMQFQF

[2] = molecular target: ARABIDOPSIS THALIANA P450-REDUCTASE 2 (ATR2), NADPH-cytochrome P450 reductase (Arabidopsis thaliana) (UniProt Q9SUM3); assay: as above

Arabidopsis thaliana cytochrome b5 isoform D (AtCB5D) (from UniProt Q9ZWT2 1-140)
binding [1]: binds | binding [2]: binds
